The text below walks through data of publication PMC8156151 (The European Respiratory Journal, 2021).

Some results come without the dose or concentration used.

Holding throughout (assay type): in vivo, human
What all share (conditions): IPF patients, percentage of baseline

The test system of one data set is MMP-8. Briefly: Plasma biomarker MMP-8. The method, then:
(§1) All patients, investigators, sites and study sponsor personnel were blinded to the study group assignments throughout the study. Patients underwent study-specific assessments on days 2, 3, 7, 14 and 15, and a post-study assessment was carried out 26–30 days after the last day of the study period. Assessments included vital signs (supine blood pressure, pulse, oxygen saturation, oral temperature and respiratory rate), spirometry, 12-lead ECG, physical examination, laboratory safety screen (haematology, biochemistry, urinalysis and urinary drugs of abuse screen) and blood sampling for PK measurements. All adverse events and concomitant medications were recorded from the time of the screening visit until the post-study follow-up visit. BAL was performed at day −1 (24 h before the first dose) and at day 14 (2 h after the last dose). […]
(§2) BAL cells were separated from fluid by centrifugation, and cells were collected, stained with antibodies (supplementary material) and then fixed before analysis using a LSR Fortessa flow cytometer (Becton Dickinson, Franklin Lakes, NJ, USA). Data were analysed using FlowJo software (Tree Star, Ashland, OR, USA). […] Gal-3 expression (mean fluorescence intensity) was determined from the macrophage gate (supplementary figures S1 and S2). […] Samples were analysed by magnetic Luminex assay (R&D Systems, Minneapolis, MN, USA) or ELISA. […]

In a further data set the test system is PAI-1. Briefly: Plasma biomarker PAI-1. As to the method: as §1, §2
The test system of a further data set is CCL18 (PARC). Kind of data set: Plasma biomarker CCL18. As to the method:
as §1, §2

The test system of a further data set is PTX3. Kind of data set: Plasma biomarker PTX3. The method, then:
as §1, §2

Another data set relates to CCL2 (MCP-1). Kind of data set: Plasma biomarker CCL2. The method, then: as §1, §2
The subject of the next data set is HGF. Kind of data set: Plasma biomarker HGF. The method, then:
as §1, §2

Another data set relates to MMP-1. Briefly: Plasma biomarker MMP-1. The method, then: as §1, §2
For a further data set, the system named is PDGF-BB. Briefly: Plasma biomarker PDGF-BB (Luminex/ELISA). As to the method:
as §1, §2
(ELISA stands for enzyme-linked immunosorbent assay.)

The subject of another data set is CCL5 (RANTES). Briefly: Plasma biomarker CCL5. The method, then: as §1, §2
A further data set deals with MMP-7. Briefly: Plasma biomarker MMP-7. The method, then:
as §1, §2

The subject of a further data set is MIF. Kind of data set: Plasma biomarker MIF. As to the method:
as §1, §2

The next data set deals with Osteopontin. Kind of data set: Plasma biomarker osteopontin. As to the method: as §1, §2
For a further data set, the system named is YKL-40 (CHI3L1). Kind of data set: Plasma biomarker YKL-40. As to the method:
as §1, §2

Another data set relates to Gal-1. Briefly: Plasma biomarker Gal-1. As to the method: as §1, §2

Consider `OC[C@H]1O[C@@H](S[C@@H]2O[C@H](CO)[C@H](O)[C@H](n3cc(-c4cccc(F)c4)nn3)[C@H]2O)[C@H](O)[C@@H](n2cc(-c3cccc(F)c3)nn2)[C@H]1O` [TD139], for which the “MMP-8, analysis including dose as a continuous covariate: Estimate” value in the data set on MMP-8 is on record as -11.55. Further, in the data set with PAI-1, the “PAI-1, analysis including dose as a continuous covariate: Estimate” value is listed as -12.25. Further, the “CCL18 (PARC), analysis including dose as a continuous covariate: Estimate” value with CCL18 (PARC) is -2.88. The “PTX-3, analysis including dose as a continuous covariate: Estimate” value in the data set on PTX3 is -5.14. Besides, the “CCL2 (MCP-1), analysis including dose as a continuous covariate: Estimate” value in the data set on CCL2 (MCP-1) is -6.35. In addition, the “HGF, analysis including dose as a continuous covariate: Estimate” value in the data set on HGF was -3.44. For the same compound, in the data set with MMP-1, the “MMP-1, analysis including dose as a continuous covariate: Estimate” value is recorded as -7.11. For the same compound, the “PDGF-BB, analysis including dose as a continuous covariate: Estimate” value with PDGF-BB is listed as -18.06. Besides, in the data set with CCL5 (RANTES), the “CCL5 (RANTES), analysis including dose as a continuous covariate: Estimate” value is listed as -3.93. Besides, the “MMP-7, analysis including dose as a continuous covariate: Estimate” value in the data set on MMP-7 is reported as -5.22. The “MIF, analysis including dose as a continuous covariate: Estimate” value with MIF is on record as -9.92. Moreover, in the data set with Osteopontin, the “Osteopontin, analysis including dose as a continuous covariate: Estimate” value was -2.40. In addition, the “YKL-40 (CHI3L1), analysis including dose as a continuous covariate: Estimate” value in the data set with YKL-40 (CHI3L1) is listed as -2.88. Moreover, the “Galectin-1, analysis including dose as a continuous covariate: Estimate” value in the data set on Gal-1 was -1.17.
